Results reported in paper PMC4811448.
These are yes or no findings as the source states them, for the method shown. Binding seen in cells or lysates may run through a third protein. Some binding calls cover weakened binding; strength is not graded here. For some assays here: Sequences can lack the tags named with a protein.

The chains behind the UniProt entries cited, without tags or fusion partners.
UniProt O35253: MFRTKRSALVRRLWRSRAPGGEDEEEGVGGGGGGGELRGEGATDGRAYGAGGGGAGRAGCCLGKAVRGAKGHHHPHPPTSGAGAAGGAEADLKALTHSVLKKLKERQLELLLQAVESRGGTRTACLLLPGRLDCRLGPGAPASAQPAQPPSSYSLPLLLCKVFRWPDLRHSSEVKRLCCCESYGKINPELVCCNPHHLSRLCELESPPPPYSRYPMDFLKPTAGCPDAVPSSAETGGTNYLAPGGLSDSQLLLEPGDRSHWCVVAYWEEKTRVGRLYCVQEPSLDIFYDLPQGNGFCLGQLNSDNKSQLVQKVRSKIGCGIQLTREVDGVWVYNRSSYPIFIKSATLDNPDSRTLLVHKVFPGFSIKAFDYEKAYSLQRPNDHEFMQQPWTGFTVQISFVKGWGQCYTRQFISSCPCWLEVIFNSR

How the values were obtained:
[1] = target: T1, LKB1 (adenovirally expressed) (UniProt Q15831); test: proximity ligation; C2C12 cells, without or with constitutively active ALK2; anti-LKB1 and goat anti-Smad7 antibodies, Duolink reagents (Supplementary Figure 3F)
T1 sequence: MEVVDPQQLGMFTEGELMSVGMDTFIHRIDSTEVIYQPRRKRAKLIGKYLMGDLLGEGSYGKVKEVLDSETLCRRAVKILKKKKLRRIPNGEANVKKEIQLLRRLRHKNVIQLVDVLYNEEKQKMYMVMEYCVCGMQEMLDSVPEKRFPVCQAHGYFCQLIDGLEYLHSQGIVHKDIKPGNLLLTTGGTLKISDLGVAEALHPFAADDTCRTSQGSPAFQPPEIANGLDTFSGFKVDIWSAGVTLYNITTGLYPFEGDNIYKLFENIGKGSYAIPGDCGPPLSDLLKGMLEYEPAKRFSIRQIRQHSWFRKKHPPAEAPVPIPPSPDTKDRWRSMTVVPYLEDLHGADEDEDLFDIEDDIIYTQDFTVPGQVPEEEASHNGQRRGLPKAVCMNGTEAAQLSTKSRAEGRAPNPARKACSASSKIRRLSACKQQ

[2] = target: T2, endogenous mouse Lkb1 (C2C12) (mouse (endogenous in C2C12)) (UniProt Q9WTK7); test: co-IP; endogenous proteins in C2C12 cells, without or with BMP7 for 1 h; LKB1 antibody or control mouse IgG pre-coupled to magnetic beads, overnight at 4°C; immunoblot for Smad7 and LKB1
T2 sequence: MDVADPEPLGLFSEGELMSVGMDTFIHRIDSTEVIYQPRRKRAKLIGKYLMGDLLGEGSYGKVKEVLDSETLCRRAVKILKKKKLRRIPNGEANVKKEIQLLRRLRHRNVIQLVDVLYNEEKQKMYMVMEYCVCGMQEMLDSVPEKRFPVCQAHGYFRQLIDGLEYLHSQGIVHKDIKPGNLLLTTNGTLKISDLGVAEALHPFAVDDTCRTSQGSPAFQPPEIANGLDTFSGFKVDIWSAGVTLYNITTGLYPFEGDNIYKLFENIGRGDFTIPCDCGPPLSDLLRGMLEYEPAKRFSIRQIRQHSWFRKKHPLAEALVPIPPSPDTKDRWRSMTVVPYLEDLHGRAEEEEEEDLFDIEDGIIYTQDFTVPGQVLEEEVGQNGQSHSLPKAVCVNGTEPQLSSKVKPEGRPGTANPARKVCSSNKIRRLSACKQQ

[3] = target: T1, LKB1 (adenovirally expressed); test: co-IP; C2C12 cells adenovirally expressing combinations of LKB1, constitutively active ALK2 and Smad7; immunoprecipitated with anti-LKB1 antibody; immunoblot for Smad7, HA-ALK2 and LKB1
[4] = target: Flag-Smad7 (transfected) (UniProt O35253); test: co-IP; sequential co-immunoprecipitation from transfected HEK-293T cells; lysis in 1% NP-40, 10 mM Tris-HCl pH 7.4, 150 mM NaCl, 1 mM EDTA; first anti-Flag M5 (Flag-Smad7), elution with 100 ug Flag peptide, second anti-HA (Y-11) against HA-ALK2 wild type; immunoblot with anti-Flag, anti-HA and anti-LKB1
[5] = target: T3, endogenous LKB1 (HaCaT) (human (endogenous in HaCaT)) (UniProt Q15831); test: co-IP; endogenous proteins in HaCaT cells, without or with BMP7 for 1 h; LKB1 antibody or control mouse IgG pre-coupled to magnetic beads, overnight at 4°C; immunoblot for ALK2 and LKB1
T3 sequence: T1 sequence

In the case of “endogenous Smad7 (C2C12) (from UniProt O35253 1-426)”, the binding [1] is reported as “binds” and the binding [2] is reported as “binds”.

For “Smad7 (adenovirally expressed) (from UniProt O35253 1-426)”, the binding [3] was “binds”.

B1: wild-type ACVR1/ALK2, HA-tagged (pcDNA3, transfected) (receptor, UniProt Q04771 21-509)
chain: MEDEKPKVNPKLYMCVCEGLSCGNEDHCEGQQCFSSLSINDGFHVYQKGCFQVYEQGKMTCKTPPSPGQAVECCQGDWCNRNITAQLPTKGKSFPGTQNFHLEVGLIILSVVFAVCLLACLLGVALRKFKRRNQERLNPRDVEYGTIEGLITTNVGDSTLADLLDHSCTSGSGSGLPFLVQRTVARQITLLECVGKGRYGEVWRGSWQGENVAVKIFSSRDEKSWFRETELYNTVMLRHENILGFIASDMTSRHSSTQLWLITHYHEMGSLYDYLQLTTLDTVSCLRIVLSIASGLAHLHIEIFGTQGKPAIAHRDLKSKNILVKKNGQCCIADLGLAVMHSQSTNQLDVGNNPRVGTKRYMAPEVLDETIQVDCFDSYKRVDIWAFGLVLWEVARRMVSNGIVEDYKPPFYDVVPNDPSFEDMRKVVCVDQQRPNIPNRWFSDPTLTSLAKLMKECWYQNPSARLTALRIKKTLTKIDNSLDKLKTDC
B1 was tested, and the binding [4] was “binds”.

B2: endogenous wild-type ALK2 receptor (HaCaT) (receptor, UniProt Q04771 21-509)
chain: B1 chain
In the case of B2, the binding [5] is reported as “binds”.
